Assay results as given in PubChem BioAssay AID504467 (National Center for Advancing Translational Sciences (NCATS), 2011).
In all, about 330,000 compounds went through this assay and about 7,700 (2.3%) were called active. Inconclusive means that the source gave no clear call. Such entries were picked first, then a sample of the others. Calls come from the whole dose curve; as a rule, active = well fitted inhibition curve with a large enough effect; inconclusive = small, poorly fitted or top-dose-only effect, or effect the other way; inactive = flat fitted curve, though single readings scatter. A potency beside an inconclusive call is a rough fit, not a confirmed value.

Assay: qHTS screen for small molecules that inhibit ELG1-dependent DNA repair in human embryonic kidney (HEK293T) cells expressing luciferase-tagged ELG1; note: nearly all actives have a fitted effect of over 55% in size
Details: HEK293T ELG1-luciferase reporter, luminescence, 16 h, DNA damage induced by 5-fluorouridine; series mostly up to 46.1 µM
Procedure, shortened: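 In this reporter screen, reduction of luminescence relative to DMSO vehicle indicated activity. Compounds and 5-fluorouridine were added together to 2,000 cells per well, incubated for 16 hr at 37 °C, then developed with ONE-Glo.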
Potency is the fitted concentration of half-maximal effect.

| Structure (SMILES) | Potency |
| --- | --- |
| CCS(=O)(=O)N1CCC(C(=O)NCCCOC)CC1 | inactive |
| COc1ccc(/C=N/NC(=O)CN2CCCc3ccccc32)c(OC)c1 | inactive |
| O=C(CSc1nnnn1-c1ccccc1)NC(=O)Nc1ccc2c(c1)OCCO2 | inconclusive: 4.61 µM [activator, partial curve, poor fit] |
| COc1cccc(NC(=S)N(CCCN2CCCC2)Cc2cccn2Cc2ccc(Cl)cc2)c1 | inactive |
| CCOC(=O)N1CCC(Nc2ccc(N3C(=O)C4CCCCC4C3=O)cc2[N+](=O)[O-])CC1 (centres undefined) | inactive |
| CC(C)c1ccc(C(=O)NN2CCOCC2)cc1 | inactive |
| O=C(Nc1ccncc1)Nc1ccc(Cl)cc1 | inconclusive: 25.9 µM [activator, single point] |
| Cc1ccc(NC(=O)NCc2nc3ccccc3n2C)cc1 | inconclusive: 16.4 µM [activator, partial curve, poor fit] |
| C/C=C(\C)CN1CCc2cc(OC)c(OC)cc2C1 | inconclusive: 13 µM [activator, single point] |
| NC(=O)c1ccc(-c2ccc(Br)cc2)o1 | inconclusive: 35.5 µM [activator, single point] |
| CCOC(=O)CN1C(=O)C(O)=C(C(C)=O)C1c1ccc([N+](=O)[O-])cc1 (centres undefined) | inconclusive: 32.6 µM [activator, partial curve, poor fit] |
| COc1ccc(-c2nn(-c3ccccc3)cc2/C=C(\C#N)S(=O)(=O)c2ccccc2)cc1OC | inactive |
| COc1ccccc1NC(=O)CSc1nnnn1-c1ccccc1OC | inactive |
| CCOC(=O)c1sc(NC(=O)c2cccc(S(=O)(=O)N3CCc4ccccc43)c2)c(C#N)c1C | inconclusive: 6.51 µM [inhibitor, single point] |
| O=C(c1ccncc1)c1ccc(N2CCN(C3CC(=O)N(Cc4ccccc4)C3=O)CC2)cc1 (centres undefined) | inconclusive: 16.4 µM [inhibitor, partial curve] |
| CCOC(=O)c1c(C)[nH]c(C(=O)COC(=O)c2[nH]c(C)c(C(C)=O)c2C)c1C | inconclusive: 3.66 µM [inhibitor, partial curve, poor fit] |
| Cc1ccc(-c2ccc(=O)n(CCC(=O)N3CCN(c4ccccc4)CC3)n2)cc1 | inconclusive: 29.1 µM [inhibitor, single point] |
| N#Cc1ccc(C(=O)NC2=NCCS2)cc1 | inconclusive: 20.6 µM [activator, partial curve] |
| Cc1cccc(-c2nc3c(c(SCC(=O)N(C)C)n2)CCCC3)c1 | inconclusive: 29.1 µM [inhibitor, single point] |
